Test results as given in PMC12245028.

By UniProt entry, the sequences of proteins in these tests, tags left out.
UniProt P30291: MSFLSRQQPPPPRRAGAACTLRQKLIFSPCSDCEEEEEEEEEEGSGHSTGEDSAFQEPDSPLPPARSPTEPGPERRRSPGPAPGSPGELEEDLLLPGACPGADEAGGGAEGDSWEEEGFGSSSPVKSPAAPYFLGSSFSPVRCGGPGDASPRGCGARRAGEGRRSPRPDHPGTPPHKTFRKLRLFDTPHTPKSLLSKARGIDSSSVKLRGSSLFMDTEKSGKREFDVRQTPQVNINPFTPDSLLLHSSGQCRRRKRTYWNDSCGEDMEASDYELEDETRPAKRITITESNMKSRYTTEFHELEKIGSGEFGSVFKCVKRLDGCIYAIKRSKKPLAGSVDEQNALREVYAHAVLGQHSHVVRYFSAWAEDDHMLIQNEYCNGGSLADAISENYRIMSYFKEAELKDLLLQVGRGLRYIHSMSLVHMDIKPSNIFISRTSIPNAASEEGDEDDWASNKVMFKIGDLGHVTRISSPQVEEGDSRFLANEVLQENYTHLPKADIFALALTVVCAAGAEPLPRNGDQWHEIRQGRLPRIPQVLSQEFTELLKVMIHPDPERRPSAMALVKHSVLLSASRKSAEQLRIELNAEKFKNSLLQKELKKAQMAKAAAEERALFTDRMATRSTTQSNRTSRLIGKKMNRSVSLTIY
UniProt Q04206: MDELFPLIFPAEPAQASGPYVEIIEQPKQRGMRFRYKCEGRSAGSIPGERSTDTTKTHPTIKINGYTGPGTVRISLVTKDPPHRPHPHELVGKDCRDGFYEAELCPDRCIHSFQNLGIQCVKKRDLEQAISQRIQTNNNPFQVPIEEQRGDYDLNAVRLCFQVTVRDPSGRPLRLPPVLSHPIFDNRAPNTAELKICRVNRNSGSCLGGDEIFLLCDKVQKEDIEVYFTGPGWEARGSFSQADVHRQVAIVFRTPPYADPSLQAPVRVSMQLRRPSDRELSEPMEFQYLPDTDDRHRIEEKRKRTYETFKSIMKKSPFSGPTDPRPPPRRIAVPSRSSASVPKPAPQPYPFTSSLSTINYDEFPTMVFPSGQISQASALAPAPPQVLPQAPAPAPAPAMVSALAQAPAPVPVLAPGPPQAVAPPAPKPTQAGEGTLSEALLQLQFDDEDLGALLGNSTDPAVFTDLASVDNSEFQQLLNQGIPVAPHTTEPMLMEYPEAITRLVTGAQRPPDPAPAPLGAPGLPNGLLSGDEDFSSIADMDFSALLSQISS

Target: HA‐WEE1^WT (UniProt P30291)
Assay: affinity purification with mass spectrometry; anti-HA antibody added to lysate of 293T cells transfected with HA-WEE1 (24 h); IgG as negative control; label-free quantitative proteomics; hits by HA/IgG ratio >1.5

binding: binds
Substance: NF‐κB p65 subunit (RELA, Transcription factor p65) (from UniProt Q04206 1-551)

These are yes or no findings as the source states them, for the method shown. Binding seen in cells or lysates may run through a third protein. A yes stands for co-enrichment or nearness to the bait. Other partners may have been found.
